Data as given in PubChem BioAssay AID1224828 (NIAID, 2016).
In all, the deposit lists about 17,000 reagents; this is an unselected part. 762 of all reagents (4.5%) count as active. 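Active calls include both raised and lowered p65 entry, mostly lowered; wells with fewer than 50 cells lack a z-score.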 Raw values are not corrected between plates.

- Test: 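Find genes required for NF-kappaB p65 moving into the nucleus after LPS in mouse macrophages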 (primary screen)
- System: mouse RAW264.7 G9 macrophage reporter cells (GFP-p65, Tnf promoter-mCherry)
- Reagent: siRNA pool against mouse genes, 100 nM
- Timing: 2 days siRNA transfection, then 40 min LPS before fixation
- Treatment: LPS (Salmonella minnesota R595) at 10 ng/ml
- Measured: 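Imaged p65 nuclear translocation ratio, normalised to the plate median, converted to robust z-scores and averaged across two replicates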
- Scale: p65 translocation robust z-score: higher = more nuclear NF-kappaB p65 after LPS than the plate median; nuclear/cytoplasmic p65 ratio: higher = more nuclear NF-kappaB p65
- Active means: 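Called active when z exceeds 3.3 or falls under -1.56 (median of Tlr4 controls), giving activity score of at least 50; no calls for control wells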
- Meaning of the calls: active = hit (p65 shift raised or lowered); inactive = no clear change

gene | p65 translocation robust z-score | nuclear/cytoplasmic p65 ratio, rep 1 | nuclear/cytoplasmic p65 ratio, rep 2 | low cell count flag | call
Msh4 | 0.34 | 1.49 | 1.38 | enough cells to score | inactive
Csf1 | -2.27 | 1.16 | 1.09 | enough cells to score | active
Sphk1 | – | 1.25 | 1.02 | fewer than 50 cells per well; well left out of scoring | inactive
Nudt8 | 1.14 | 1.86 | 1.72 | enough cells to score | inactive
2810407A14Rik | 1.48 | 1.33 | 1.66 | enough cells to score | inactive
Pom121 | -0.59 | 1.28 | 1.17 | enough cells to score | inactive
Rfc1 | -0.58 | 1.48 | 1.39 | enough cells to score | inactive
Mmaa | -0.68 | 1.39 | 1.22 | enough cells to score | inactive
Aven | -0.1 | 1.67 | 1.53 | enough cells to score | inactive
Adamts1 | 0.07 | 1.6 | 1.65 | enough cells to score | inactive
Arf5 | 1.26 | 1.74 | 1.74 | enough cells to score | inactive
Osbpl2 | – | 1.31 | 1.13 | fewer than 50 cells per well; well left out of scoring | inactive
Calm3 | -0.55 | 1.58 | 1.33 | enough cells to score | inactive
Cela3b | -0.41 | 1.27 | 1.32 | enough cells to score | inactive
Ncdn | -2.1 | 1.36 | 1.34 | enough cells to score | active
Sharpin | – | 1.54 | 1.25 | fewer than 50 cells per well; well left out of scoring | inactive
Haus6 | 1.19 | 1.47 | 1.66 | enough cells to score | inactive
Smtnl1 | -0.02 | 1.5 | 1.62 | enough cells to score | inactive
Gltp | 0.37 | 1.69 | 1.61 | enough cells to score | inactive
Gh | -0.17 | 1.48 | 1.52 | enough cells to score | inactive

Continued; the last 2 above are carried over.
gene | p65 translocation robust z-score | nuclear/cytoplasmic p65 ratio, rep 1 | nuclear/cytoplasmic p65 ratio, rep 2 | low cell count flag | call
Gltp | 0.37 | 1.69 | 1.61 | enough cells to score | inactive
Gh | -0.17 | 1.48 | 1.52 | enough cells to score | inactive
Sema6a | 0.03 | 1.43 | 1.26 | enough cells to score | inactive
Klf12 | 0.56 | 1.5 | 1.5 | enough cells to score | inactive
Gpx2 | 1.53 | 1.63 | 1.57 | enough cells to score | inactive
Ift88 | – | 1.34 | 1.13 | fewer than 50 cells per well; well left out of scoring | inactive
Tril | -0.36 | 1.35 | 1.43 | enough cells to score | inactive
Il16 | -0.22 | 1.28 | 1.36 | enough cells to score | inactive
Bptf | 0.24 | 1.49 | 1.41 | enough cells to score | inactive
Rmdn1 | – | 1.29 | 1.27 | fewer than 50 cells per well; well left out of scoring | inactive
Egln3 | 0.35 | 1.58 | 1.35 | enough cells to score | inactive
Plb1 | 0.28 | 1.66 | 1.85 | enough cells to score | inactive
Gm9734 | – | 1.27 | 1.32 | fewer than 50 cells per well; well left out of scoring | inactive
Cyp2b13 | -0.29 | 1.5 | 1.77 | enough cells to score | inactive
P2ry4 | -1.67 | 1.24 | 1.38 | enough cells to score | active
Fgfr2 | 0.39 | 1.75 | 1.43 | enough cells to score | inactive
Ccdc7a | -0.43 | 1.23 | 1.24 | enough cells to score | inactive
Prss2 | -0.52 | 1.3 | 1.17 | enough cells to score | inactive
Bbs5 | – | 1.37 | 1.6 | fewer than 50 cells per well; well left out of scoring | inactive
Prtg | – | 1.54 | 1.35 | fewer than 50 cells per well; well left out of scoring | inactive
Sult4a1 | – | 1.27 | 1.1 | fewer than 50 cells per well; well left out of scoring | inactive
Rps6ka1 | 1.13 | 1.76 | 1.6 | enough cells to score | inactive
